Data from paper PMC3088666.
Results are given in words; binding and its absence hold for the method and conditions named. Binding seen in cells or lysates may run through a third protein. Some results given as binding are weak or reduced against the parent protein; the word gives no strength. Tags and fused reporters may be left off the sequences shown. Each block holds one molecule with its values, some of them ahead of it.

Sequences of proteins named here, by UniProt entry; tags and fusion partners are left off.
UniProt Q02577: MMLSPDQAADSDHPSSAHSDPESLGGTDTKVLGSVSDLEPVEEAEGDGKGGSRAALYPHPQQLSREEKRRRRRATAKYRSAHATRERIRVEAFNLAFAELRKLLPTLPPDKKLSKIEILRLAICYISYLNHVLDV

What was measured:
[1] = molecular target: T1, Myc-HES1 (rat) (UniProt Q04666); experiment: co-IP; Neuro2a cells co-transfected, lysed 48 h later in 25 mM Tris-HCl pH 8.0, 137 mM NaCl, 2.7 mM KCl, 1% Triton X-100; 2 mg lysate immunoprecipitated with polyclonal anti-FLAG or anti-Myc tag antibody overnight at 4°C, protein G-Sepharose; immunoblot
T1 sequence: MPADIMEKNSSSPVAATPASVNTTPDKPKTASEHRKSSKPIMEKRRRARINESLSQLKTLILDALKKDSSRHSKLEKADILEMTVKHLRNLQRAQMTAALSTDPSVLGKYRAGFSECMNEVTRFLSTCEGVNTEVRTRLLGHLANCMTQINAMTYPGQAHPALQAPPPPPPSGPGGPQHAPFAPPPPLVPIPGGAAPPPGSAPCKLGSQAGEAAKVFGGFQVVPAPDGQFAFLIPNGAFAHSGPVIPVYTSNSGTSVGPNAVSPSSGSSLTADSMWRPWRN

[2] = molecular target: T1, Myc-HES1 (rat); experiment: pull-down; in vitro pull-down: radio-labeled in vitro translated FLAG-HEN2 incubated with lysate of Neuro2a cells transfected with Myc-HES1; immunoprecipitated with polyclonal anti-Myc tag antibody (control: normal rabbit serum); SDS-PAGE, autoradiography
[3] = molecular target: FLAG-HEN2 (human) (UniProt Q02577); experiment: co-IP; Neuro2a cells co-transfected, lysed 48 h later in 25 mM Tris-HCl pH 8.0, 137 mM NaCl, 2.7 mM KCl, 1% Triton X-100; 2 mg lysate immunoprecipitated with polyclonal anti-FLAG or anti-Myc tag antibody overnight at 4°C, protein G-Sepharose; immunoblot
[4] = molecular target: T2, FLAG-LMO3 (human) (UniProt Q8TAP4); experiment: as above
T2 sequence: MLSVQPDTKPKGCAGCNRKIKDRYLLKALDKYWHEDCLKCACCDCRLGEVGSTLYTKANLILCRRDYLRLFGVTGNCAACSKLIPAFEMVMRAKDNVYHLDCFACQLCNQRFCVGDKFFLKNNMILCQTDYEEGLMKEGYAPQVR

binding [1]: binds
Molecule: FLAG-HEN2 (from UniProt Q02577 1-135)

binding [2]: binds
Molecule: Radio-labeled FLAG-HEN2 (from UniProt Q02577 1-135)

binding [3]: binds
binding [4]: binds
B1: Myc-HES1 (protein, UniProt Q04666 1-281)
chain: T1 sequence
